# Assay results published in the supplement of paper PMC8728848.
# This is one part of the list.
# B1: Thrombomodulin Extracellular (Mus musculus), P15306 (protein)
# chain: MLGIFFLGVLAPASLGLSALAKLQPTGSQCVEHECFALFQGPATFLDASQACQRLQGHLMTVRSSVAADVISLLLSQSSMDLGPWIGLQLPQGCDDPVHLGPLRGFQWVTGDNHTSYSRWARPNDQTAPLCGPLCVTVSTATEAAPGEPAWEEKPCETETQGFLCEFYFTASCRPLTVNTRDPEAAHISSTYNTPFGVSGADFQTLPVGSSAAVEPLGLELVCRAPPGTSEGHWAWEATGAWNCSVENGGCEYLCNRSTNEPRCLCPRDMDLQADGRSCARPVVQSCNELCEHFCVSNAEVPGSYSCMCETGYQLAADGHRCEDVDDCKQGPNPCPQLCVNTKGGFECFCYDGYELVDGECVELLDPCFGSNCEFQCQPVSPTDYRCICAPGFAPKPDEPHKCEMFCNETSCPADCDPNSPTVCECPEGFILDEGSVCTDIDECSQGECFTSECRNFPGSYECICGPDTALAGQISKDCDPIPVREDTKEEEGSGEPPVSPTPGSPTGPPSARPVHSGVLIGISIASLSLVVALLALLCHLRKKQGAARAELEYKCASSAKEVVLQHVRTDRTLQKF
# Columns and labels:
# Assay in all cases: glycan array binding signal (z-score within array); higher = stronger binding
# Details in all cases: glycan notation: IUPAC condensed, linker removed
# [1] = molecular target: Neu5Ac(a2-3)Gal(b1-4)GlcNAc(b1-6)GalNAc
# Method in brief: (§1)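 The binding signal is a Z-score computed within each array and averaged over linkers. Arrays of the same protein sequence at different concentrations or buffers were also averaged together. Data originate from 3228 arrays in the Consortium for Functional Glycomics database, kept only where the protein sequence was available.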
# [2] = molecular target: Neu5Ac(a2-3)Gal(b1-4)GlcNAc(b1-6)[Gal(b1-3)]GalNAc
# Method in brief: as §1
# [3] = molecular target: Neu5Ac(a2-3)Gal(b1-4)GlcNAc(b1-6)[Neu5Ac(a2-3)Gal(b1-3)]GalNAc
# Method in brief: as §1
# [4] = molecular target: Neu5Ac(a2-3)Gal(b1-4)GlcNAc6S
# Method in brief: as §1
# [5] = molecular target: Neu5Ac(a2-3)Gal(b1-4)[Fuc(a1-3)]GlcNAc
# Method in brief: as §1
# [6] = molecular target: Neu5Ac(a2-3)Gal(b1-4)[Fuc(a1-3)]GlcNAc(b1-2)Man
# Method in brief: as §1
# [7] = molecular target: Neu5Ac(a2-3)Gal(b1-4)[Fuc(a1-3)]GlcNAc(b1-3)Gal
# Method in brief: as §1
# [8] = molecular target: Neu5Ac(a2-3)Gal(b1-4)[Fuc(a1-3)]GlcNAc(b1-3)Gal(b1-4)GlcNAc
# Method in brief: as §1
# [9] = molecular target: Neu5Ac(a2-3)Gal(b1-4)[Fuc(a1-3)]GlcNAc(b1-3)Gal(b1-4)[Fuc(a1-3)]GlcNAc(b1-3)Gal(b1-4)[Fuc(a1-3)]GlcNAc
# Method in brief: as §1
# [10] = molecular target: Neu5Ac(a2-3)Gal(b1-4)[Fuc(a1-3)]GlcNAc(b1-3)GalNAc
# Method in brief: as §1
# [11] = molecular target: Neu5Ac(a2-3)Gal(b1-4)[Fuc(a1-3)]GlcNAc(b1-6)[Gal(b1-3)]GalNAc
# Method in brief: as §1
# [12] = molecular target: Neu5Ac(a2-3)Gal(b1-4)[Fuc(a1-3)]GlcNAc(b1-6)[Neu5Ac(a2-3)Gal(b1-3)]GalNAc
# Method in brief: as §1
# [13] = molecular target: Neu5Ac(a2-3)Gal(b1-4)[Fuc(a1-3)]GlcNAc6S
# Method in brief: as §1
# [14] = molecular target: Neu5Ac(a2-3)Gal6S(b1-4)GlcNAc
# Method in brief: as §1
# [15] = molecular target: Neu5Ac(a2-3)Gal6S(b1-4)[Fuc(a1-3)]GlcNAc
# Method in brief: as §1
# Neu5Ac(a2-3)GalNAc = molecular target: Neu5Ac(a2-3)GalNAc
# Method in brief: as §1
# [16] = molecular target: Neu5Ac(a2-3)GalNAc(b1-4)GlcNAc
# Method in brief: as §1
# [17] = molecular target: Neu5Ac(a2-3)[GalNAc(b1-4)]Gal(b1-4)Glc
# Method in brief: as §1
# [18] = molecular target: Neu5Ac(a2-3)[GalNAc(b1-4)]Gal(b1-4)GlcNAc
# Method in brief: as §1
# [19] = molecular target: Neu5Ac(a2-3)[GalNAc(b1-4)]Gal(b1-4)GlcNAc(b1-3)GalNAc
# Method in brief: as §1
# [20] = molecular target: Neu5Ac(a2-3)[Neu5Ac(a2-6)]GalNAc
# Method in brief: as §1
# Neu5Ac(a2-6)Gal = molecular target: Neu5Ac(a2-6)Gal
# Method in brief: as §1
# [21] = molecular target: Neu5Ac(a2-6)Gal(b1-3)GlcNAc(b1-3)[Gal(b1-4)GlcNAc(b1-6)]Gal(b1-4)Glc
# Method in brief: as §1
# Neu5Ac(a2-6)Gal(b1-4)Glc = molecular target: Neu5Ac(a2-6)Gal(b1-4)Glc
# Method in brief: as §1
# [22] = molecular target: Neu5Ac(a2-6)Gal(b1-4)GlcNAc
# Method in brief: as §1
# [23] = molecular target: Neu5Ac(a2-6)Gal(b1-4)GlcNAc(b1-2)Man
# Method in brief: as §1
# [24] = molecular target: Neu5Ac(a2-6)Gal(b1-4)GlcNAc(b1-2)Man(a1-3)Man(b1-4)GlcNAc(b1-4)GlcNAc
# Method in brief: as §1
# [25] = molecular target: Neu5Ac(a2-6)Gal(b1-4)GlcNAc(b1-2)Man(a1-3)[Gal(b1-4)GlcNAc(b1-2)Man(a1-6)]Man(b1-4)GlcNAc(b1-4)GlcNAc
# Method in brief: as §1
# [26] = molecular target: Neu5Ac(a2-6)Gal(b1-4)GlcNAc(b1-2)Man(a1-3)[GlcNAc(b1-2)Man(a1-6)]Man(b1-4)GlcNAc(b1-4)GlcNAc
# Method in brief: as §1
# [27] = molecular target: Neu5Ac(a2-6)Gal(b1-4)GlcNAc(b1-2)Man(a1-3)[GlcNAc(b1-4)][Neu5Ac(a2-6)Gal(b1-4)GlcNAc(b1-2)Man(a1-6)]Man(b1-4)GlcNAc(b1-4)GlcNAc
# Method in brief: as §1
binder,measurement,setting,value
B1,glycan array binding signal (z-score),[1],0.353
same,glycan array binding signal (z-score),[2],0.65
same,glycan array binding signal (z-score),[3],0.2
same,glycan array binding signal (z-score),[4],-0.748
same,glycan array binding signal (z-score),[5],-0.322
same,glycan array binding signal (z-score),[6],-1.17
same,glycan array binding signal (z-score),[7],0.119
same,glycan array binding signal (z-score),[8],0.865
same,glycan array binding signal (z-score),[9],-1.58
same,glycan array binding signal (z-score),[10],2.09
same,glycan array binding signal (z-score),[11],-0.283
same,glycan array binding signal (z-score),[12],0.974
same,glycan array binding signal (z-score),[13],-0.158
same,glycan array binding signal (z-score),[14],-0.167
same,glycan array binding signal (z-score),[15],-1.88
same,glycan array binding signal (z-score),Neu5Ac(a2-3)GalNAc,-1.59
same,glycan array binding signal (z-score),[16],-0.009
same,glycan array binding signal (z-score),[17],0.754
same,glycan array binding signal (z-score),[18],-0.842
same,glycan array binding signal (z-score),[19],0.896
same,glycan array binding signal (z-score),[20],0.585
same,glycan array binding signal (z-score),Neu5Ac(a2-6)Gal,-0.681
same,glycan array binding signal (z-score),[21],-1.79
same,glycan array binding signal (z-score),Neu5Ac(a2-6)Gal(b1-4)Glc,-0.597
same,glycan array binding signal (z-score),[22],0.191
same,glycan array binding signal (z-score),[23],-0.589
same,glycan array binding signal (z-score),[24],1.57
same,glycan array binding signal (z-score),[25],-0.047
same,glycan array binding signal (z-score),[26],-0.244
same,glycan array binding signal (z-score),[27],0.188

# Quoted at random: 2 records from the list, in no set order.
binder,measurement,setting,value
B1,glycan array binding signal (z-score),[17],0.754
same,glycan array binding signal (z-score),Neu5Ac(a2-6)Gal,-0.681
